# Results are given in words; binding and its absence hold for the method and conditions named. Binding seen in cells or lysates may run through a third protein. Binding can be weak; no strength is given. Tags and fused reporters may be left off the sequences shown.
# Columns and labels:
# [1] = target: V5-CB2_(SH3-) (collybistin splice isoform CB2 without SH3 domain) (rat); assay: co-IP; HEK-293T cells co-transfected with VSVG-Cdc42 and V5-CB1_(SH3-) or V5-CB2_(SH3-), with or without FLAG-gephyrin; lysate first depleted of free active Cdc42 with GST-PKB beads; IP with antibody against VSVG, WB for V5
# [2] = target: V5-CB1_(SH3-) (collybistin splice isoform CB1 without SH3 domain) (rat); assay: as above
binder,measurement,setting,value
"FLAG-gephyrin (protein, UniProt Q03555 1-768) MATEGMILTNHDHQIRVGVLTVSDSCFRNLAEDRSGINLKDLVQDPSLLGGTISAYKIVPDEIEEIKETLIDWCDEKELNLILTTGGTGFAPRDVTPEKFPTFPFCGLQKGATKEVIEREAPGMALAMLMGSLNVTPLGMLSRPVCGIRGKTLIINLPGSKKGSQECFQFILPALPHAIDLLRDAIVKVKEVHDELEDLPSPPPPLSPPPTTSPHKQTEDKGVQCEEEEEEKKDSGVASTEDSSSSHITAAALAAKIPDSIISRGVQVLPRDTASLSTTPSESPRAQATSRLSTASCPTPKQIRRPDESKGVASRVGSLKVQSRCSSKENILRASHSAVDITKVARRHRMSPFPLTSMDKAFITVLEMTPVLGTEIINYRDGMGRVLAQDVYAKDNLPPFPASVKDGYAVRAADGPGDRFIIGESQAGEQPTQTVMPGQVMRVTTGAPIPCGADAVVQVEDTELIRESDDGTEELEVRILVQARPGQDIRPIGHDIKRGECVLAKGTHMGPSEIGLLATVGVTEVEVNKFPVVAVMSTGNELLNPEDDLLPGKIRDSNRSTLLATIQEHGYPTINLGIVGDNPDDLLNALNEGISRADVIITSGGVSMGEKDYLKQVLDIDLHAQIHFGRVFMKPGLPTTFATLDIDGVRKIIFALPGNPVSAVVTCNLFVVPALRKMQGILDPRPTIIKARLSCDVKLDPRPEYHRCILTWHHQEPLPWAQSTGNQMSSRLMSMRSANGLLMLPPKTEQYVELHKGEVVDVMVIGRL",binding,[1],binds
same,binding,[2],binds
